# Reference: patent US20050089524A1, “Compositions and compounds for use as molecular adjuvant for a nicotine vaccine” (priority 2002, published 2005)
# Not every detail of the peptide structures is certain; ends, links or a residue may be inferred.
# Assay: Anti-nicotine antibodies in immune serum of rats (ELISA)
# Type: in vivo, Wistar rats
# Method: ii. Animal Models. Five groups of male Wistar rats (ca 275 g) were immunized every other week with: 1) PBS 2) Nic-[…]aR (Nic-SEQ ID NO:1), 3) Nic-[…]aR (Nic-SEQ ID NO:1) in Freund's adjuvant, 4) Nic-[…]aR (Nic-SEQ ID NO:2), and 5) Nic-[…]aR (Nic-SEQ ID NO:2) in Freund's adjuvant. Primary immunizations were accomplished by subcutaneous (s.c.) and intrapertioneal (i.p.) injection of 100 μg of the peptides as indicated above in the presence or absences of complete Freund's adjuvant. Boosting was performed in identical fashion at two-week internals with 100 μg of the peptides in the presence of absence of Freund's adjuvant. Sera were obtained by retro-orbital sinus puncture one week after the third injection.
# [1] = 100 μg s.c. and i.p., sera one week after the third injection
compound,measurement,setting,value
CSCC[C@H](NC(=O)[C@@H]1CCCN1C(=O)[C@H](CCCCN)NC(=O)[C@H](Cc1ccccc1)NC(=O)[C@H](CO)NC(=O)[C@H](Cc1ccc(O)cc1)NC(=O)CCC(=O)NC[C@@H]1CCN(C)[C@H]1c1cccnc1)C(=O)N1CCC[C@H]1C(=O)N[C@@H](CC(C)C)C(=O)N[C@H](C)C(=O)N[C@@H](CCCNC(=N)N)C(=O)O [C5a-Nic],"Modified Minus Unmodified, BSA",[1],0 ng/mL
same,"Modified Minus Unmodified, BSA-Nic",[1],"3,854 ng/ml"
same,"Raw Data, plate coated with BSA",[1],466 ng/mL
same,"Raw Data, plate coated with BSA-Nic",[1],"4,320 ng/ml"
same,response to nicotine by reactivity to C5a-Nic and B-Cell-Nic,"in the presence and absence of Freund's adjuvant, FIG. 7",induced responses to nicotine
